Laboratory results: PMC12040169 (PLOS Biology, 2025)
This is one part of the list.

test system: T1, CTL2-GFP (C. trachomatis L2/434/Bu, GFP-expressing); parameters: species or system HeLa; Intracellular C. trachomatis growth in HeLa cells, bulk GFP fluorescence relative to DMSO; conditions: bulk GFP, single well; 28.5 h, 10 µM; inhibitor
T1 construct: L2/434/Bu, GFP-expressing

| Structure (SMILES) | % of control remaining |
| --- | --- |
| O=C(NC1CCN(Cc2ccccc2)CC1)c1cnc(-c2ccc(Cl)cc2)c(-c2cccnc2)c1 [CBK037602] | 123.139% |
| COc1cccc2cc(C(=O)NCCCSC)oc12 [CBK149793] | 105.637% |
| CCCCNC(=O)CSc1ncccc1C(=O)NCc1cccnc1 [CBK071590] | 105.927% |
| CCOc1ccccc1NC(=O)CSc1nc(N)cc(O)n1 [CBK268075] | 104.792% |
| c1ccc(CN2CCN(CCN3CCn4c3nc3ccccc34)CC2)cc1 [CBK265472B] | 117.965% |
| COc1cc2ncc(C(=O)NCc3cccs3)c(O)c2cc1OC [CBK159998] | 75.3089% |
| CC(C)C(=O)N1CC2(CCN(Cc3nc4ccccc4[nH]3)CC2)c2ccccc21 [CBK126719] | 81.6272% |
| COc1ccc(C)cc1N(CC(=O)Nc1ccccc1C(=O)O)S(C)(=O)=O [CBK264009] | 100% |
| CN1C(=O)CC2(C1=O)C(=O)N(CCCCOc1ccccc1)c1ccc(F)cc12 (stereo not shown) [CBK075408] | 113.509% |
| Nc1nnc(SC2c3cccc4cccc(c34)C2NS(=O)(=O)c2ccc(Cl)cc2)s1 (stereo not shown) [CBK266373] | 118.856% |
| Cc1cc(NCC2CCCO2)n2nc(C)c(-c3ccccc3)c2n1 (stereo not shown) [CBK304531] | 118.267% |
| Cc1cc(N2CCN(C(=O)OC(C)(C)C)CC2)nc(N)n1 [CBK001843] | 71.5303% |
| O=C1CCCN1CCC1CCN(c2nccc(CCC(F)(F)F)n2)CC1 [CBK307534] | 122.222% |
| COc1cccc(/C=C\c2onc(C)c2[N+](=O)[O-])c1OCC(=O)O [CBK269063] | 133.41% |
| Cc1ccc([N+](=O)[O-])cc1NS(=O)(=O)Cc1ccc(Cl)cc1 [CBK111359] | 101.342% |
| CCCNc1nc(Nc2ccc(C)cc2)nc(N2CCOCC2)n1 [CBK266664] | 149.271% |
| Cc1c(-c2cccc(C(=O)N(CCO)C3CCS(=O)(=O)C3)c2)cnn1C (stereo not shown) [CBK307621] | 131.393% |
| O=C(Oc1ccc2c(=O)c(Oc3ccc(-c4ccccc4)cc3)coc2c1)c1cccnc1 [CBK264479] | 97.7748% |
| CC1(C)SC2c3ccccc3C(=O)N2[C@@H]1C(=O)N1CCC(C(=O)O)CC1 (stereo partly shown) [CBK286760] | 127.391% |
| O=C(C[C@@H]1CCNC[C@@H]1Cc1cc(-c2ccccc2)on1)N1CCN(c2ccccn2)CC1 [CBK289150] | 150.233% |
| O=S(=O)(Nc1nc2ccccc2nc1Nc1ccccc1)c1ccccc1 [CBK260953] | 107.686% |
| Cc1cccc2cnc(C3CCN(C(=O)c4cnn(C)c4C)CC3)cc12 [CBK285196] | 100.302% |
| Cc1ccccc1C(=O)NC(NCC1CCCO1)C(Cl)(Cl)Cl (stereo not shown) [CBK262273] | 120.794% |
| O=C(CSc1nc(-c2cccc([N+](=O)[O-])c2)cs1)NCC1CCCO1 (stereo not shown) [CBK268020] | 125.354% |
| CN(C)c1cccc(-c2nc(-c3ccc(C#N)cc3)cnc2N)c1 [CBK064049] | 138.532% |
| CN(C)CC(=O)N1Cc2cccc3c2c(cn3S(=O)(=O)c2ccccc2)C1 [CBK155548T] | 119.766% |
| CSCCN(C)c1nc2c(c(=O)[nH]1)Cc1ccccc1OC2 [CBK307523] | 92.7961% |

| Structure (SMILES) | % of control remaining |
| --- | --- |
| CCOC(=O)N[C@@H](CC1CCCCC1)C(=O)NCCc1ccc(S(N)(=O)=O)cc1 [CBK015131] | 152.715% |
| c1ccc(Cn2c(CN3CCCC3)nc3ccccc32)cc1 [CBK269612] | 148.629% |
| CCN(CC)C(=O)Cn1ncc2c3oc(C)cc3n(C(C)C)c2c1=O [CBK282848] | 128.685% |
| CN1CCC(Cc2nc(-c3cccc(OC(F)F)c3)n(CCO)n2)CC1 [CBK307294] | 131.225% |
| Cc1cc(N(C)C)cc(C2CCCN(C(=O)C3CCC3)C2)n1 (stereo not shown) [CBK282004] | 170.252% |
| O=C(Nc1cccnc1)c1ccnc(Cl)c1 [CBK089829] | 119.372% |
| Clc1ccc(/C=N/Nc2nnn[nH]2)c(Cl)c1 [CBK262034] | 117.273% |
| CCCN1CCC(CNC(=O)c2cc(C3CCCCC3)no2)CC1 [CBK283297] | 124.644% |
| CC1(C)C(=O)OC(C(=O)c2ccc(Br)cc2)C(C)(C)C1=O (stereo not shown) [CBK264600] | 100% |
| O=C(NCc1ccc(C(F)(F)F)nc1)OCCc1ccncc1 [CBK200132] | 93.757% |
| COc1ccc(C(=O)Nc2nc3ccc(S(C)(=O)=O)cc3s2)cc1 [CBK287338] | 129.913% |
| COc1cc(OC)c(CCNC2CCCc3c2cnn3C)c(OC)c1 (stereo not shown) [CBK304482] | 31.9081% |
| c1ccc2c(c1)OCC(COc1ccnc(N3CCCN(CCc4ccc5ccccc5c4)CC3)n1)O2 (stereo not shown) [CBK083983] | 110.338% |
| S=C(NCc1ccco1)NCc1cn(-c2ccccc2)nc1-c1ccccc1 [CBK266895] | 96.1185% |
| O=C(COc1ccc2ccccc2c1)Nc1ccc(Cl)cc1Cl [CBK263598] | 96.3013% |
| COc1ccc(CN2CCC(Oc3nccnc3OCc3cc(C)on3)CC2)cc1 [CBK082953T] | 118.571% |
| CCOC(=O)C(C)n1nc(CC)n2c(cc3sc(C)cc32)c1=O (stereo not shown) [CBK284123] | 137.701% |
| O=C(O)c1ccc(NS(=O)(=O)c2cc(F)c(Br)cc2F)cc1 [CBK034045] | 100% |
| NC(=O)c1cccc(COc2ccccc2C(=O)Nc2ccc(-c3ccsc3)cc2C(=O)O)c1 [CBK001718] | 126.76% |
| CN(C)CCCn1c(NCc2ccc3c(c2)OCO3)nc2ccccc21 [CBK278273C] | 126.841% |
| Cc1ncccc1Oc1ccc(NC(=O)N2CCc3ccccc3CC2)cn1 [CBK018383] | 73.026% |
| O=C(CSc1nnc(C2CC2)o1)Nc1ccc(CN2CCOCC2)cc1 [CBK305015] | 132.104% |
| CC1(C)Cc2nc(N3CCOCC3)ncc2C(NC(=O)c2cccs2)C1 (stereo not shown) [CBK307369] | 120.312% |
| COc1ccc(NC(=O)c2cc(-c3cccc(Cl)c3)nc3ccccc23)c([N+](=O)[O-])c1 [CBK267777] | 100% |
| O=C(NCc1ccccn1)C1CC(=O)N(c2ccccc2)C1 (stereo not shown) [CBK270175] | 135.814% |
| COc1cncc(-c2cc(Nc3cccc(OC)c3OC)ncn2)c1 [CBK090728] | 69.5027% |
| c1nnc(SCc2ccc(CSc3nnc[nH]3)cc2)[nH]1 [CBK263282] | 123.517% |

| Structure (SMILES) | % of control remaining |
| --- | --- |
| COc1ccc(CNC(=O)NC(=O)C2CCN(CCc3c[nH]c4ccccc34)CC2)c(OC)c1 [CBK034864] | 162.68% |
| COC(=O)C1C(=O)c2cc3c(cc2C1c1cc(OC)c(OC)c(OC)c1)OCO3 (stereo not shown) [CBK200099] | 112.868% |
| CCCn1c(Nc2nc3ccccc3n2C)nc2ccccc21 [CBK268310] | 117.379% |
| Cc1ncsc1CCOc1cc(C(F)(F)F)ccn1 [CBK115785] | 84.425% |
| CC(C)CNS(=O)(=O)c1ccc(CCC(=O)O)cc1 [CBK287107] | 118.076% |
| NC(=O)CC1Nc2cccc3cccc(c23)NC1=O (stereo not shown) [CBK267560] | 129.81% |
| O=C1N=C(NC2CCCCCC2)SC1C(=O)N1CCCCCC1 (stereo not shown) [CBK085513] | 139.13% |
| Cc1oc2ccc(O)cc2c1C(=O)NC(C)(C)CN1CCCC(C)C1 (stereo not shown) [CBK282601] | 124.518% |
| COc1ccc(C2C(C(=O)c3ccc(C)cc3)=C(O)C(=O)N2CCN(C)C)cc1OC (stereo not shown) [CBK264463] | 100% |
| CCc1c(-c2cccc(C(=O)N3CCS(=O)(=O)CC3)c2)cnn1C [CBK307487] | 147.823% |
| CCn1cnc2c1CCC(CN/C(=N/C(=O)c1ccccc1)NC)C2 (stereo not shown) [CBK010036] | 125.033% |
| CCN(CCn1cccn1)c1nc2nonc2nc1NC1CCCC1 [CBK307589] | 122.325% |
| OCc1ccc(-n2ncc(-c3ccc(C(F)(F)F)cc3)n2)cc1 [CBK112696] | 133.066% |
| Cc1nn(C)cc1CN1CCN(CC2(c3ccccc3)CC2)CC1 [CBK282721] | 130.853% |
| COc1cccc(C2C(C(=O)c3ccc(C)o3)=C(O)C(=O)N2CCN2CCOCC2)c1 (stereo not shown) [CBK264899] | 123.085% |
| CN(C(=O)CCn1c(=O)oc2cc(Cl)ccc21)C1(C(N)=O)CCCC1 [CBK305493] | 132.946% |
| Cc1ccc(C(=O)NCC(O)c2ccc(F)cc2F)cn1 (stereo not shown) [CBK297751] | 147.45% |
| O=C(NCCCn1ccnc1)c1ncoc1-c1cccs1 [CBK282404] | 147.818% |
| O=C(NCc1cccc(C(F)(F)F)c1)N1CCCC(CO)C1 (stereo not shown) [CBK156033] | 109.322% |
| CC(OC(=O)c1ccc2c(c1)C(=O)N(c1ccc([N+](=O)[O-])cc1)C2=O)C(=O)c1ccccc1 (stereo not shown) [CBK157061] | 124.202% |
| COc1ccccc1-c1nccnc1OCCC(C)C [CBK106818] | 110.974% |
| Cc1ccc(C(=O)N2CCC3(CC2)CC(=O)c2cc(Br)ccc2O3)cc1C [CBK162264] | 140.329% |
| Cc1nnc(SCC(=O)Nn2c(-c3ccccc3)nc3ccccc3c2=O)[nH]1 [CBK268841] | 109.463% |
| Cc1ccc(S(=O)(=O)NCC(=O)Nc2ccc(C)cc2C(=O)c2ccccc2)cc1 [CBK265199] | 100% |
| O=C(COc1ccc2c(c1)OCO2)Nc1ccccn1 [CBK288148] | 112.852% |

23 successive records from above, for reference:

| Structure (SMILES) | % of control remaining |
| --- | --- |
| CSCCN(C)c1nc2c(c(=O)[nH]1)Cc1ccccc1OC2 [CBK307523] | 92.7961% |
| CCOC(=O)N[C@@H](CC1CCCCC1)C(=O)NCCc1ccc(S(N)(=O)=O)cc1 [CBK015131] | 152.715% |
| c1ccc(Cn2c(CN3CCCC3)nc3ccccc32)cc1 [CBK269612] | 148.629% |
| CCN(CC)C(=O)Cn1ncc2c3oc(C)cc3n(C(C)C)c2c1=O [CBK282848] | 128.685% |
| CN1CCC(Cc2nc(-c3cccc(OC(F)F)c3)n(CCO)n2)CC1 [CBK307294] | 131.225% |
| Cc1cc(N(C)C)cc(C2CCCN(C(=O)C3CCC3)C2)n1 (stereo not shown) [CBK282004] | 170.252% |
| O=C(Nc1cccnc1)c1ccnc(Cl)c1 [CBK089829] | 119.372% |
| Clc1ccc(/C=N/Nc2nnn[nH]2)c(Cl)c1 [CBK262034] | 117.273% |
| CCCN1CCC(CNC(=O)c2cc(C3CCCCC3)no2)CC1 [CBK283297] | 124.644% |
| CC1(C)C(=O)OC(C(=O)c2ccc(Br)cc2)C(C)(C)C1=O (stereo not shown) [CBK264600] | 100% |
| O=C(NCc1ccc(C(F)(F)F)nc1)OCCc1ccncc1 [CBK200132] | 93.757% |
| COc1ccc(C(=O)Nc2nc3ccc(S(C)(=O)=O)cc3s2)cc1 [CBK287338] | 129.913% |
| COc1cc(OC)c(CCNC2CCCc3c2cnn3C)c(OC)c1 (stereo not shown) [CBK304482] | 31.9081% |
| c1ccc2c(c1)OCC(COc1ccnc(N3CCCN(CCc4ccc5ccccc5c4)CC3)n1)O2 (stereo not shown) [CBK083983] | 110.338% |
| S=C(NCc1ccco1)NCc1cn(-c2ccccc2)nc1-c1ccccc1 [CBK266895] | 96.1185% |
| O=C(COc1ccc2ccccc2c1)Nc1ccc(Cl)cc1Cl [CBK263598] | 96.3013% |
| COc1ccc(CN2CCC(Oc3nccnc3OCc3cc(C)on3)CC2)cc1 [CBK082953T] | 118.571% |
| CCOC(=O)C(C)n1nc(CC)n2c(cc3sc(C)cc32)c1=O (stereo not shown) [CBK284123] | 137.701% |
| O=C(O)c1ccc(NS(=O)(=O)c2cc(F)c(Br)cc2F)cc1 [CBK034045] | 100% |
| NC(=O)c1cccc(COc2ccccc2C(=O)Nc2ccc(-c3ccsc3)cc2C(=O)O)c1 [CBK001718] | 126.76% |
| CN(C)CCCn1c(NCc2ccc3c(c2)OCO3)nc2ccccc21 [CBK278273C] | 126.841% |
| Cc1ncccc1Oc1ccc(NC(=O)N2CCc3ccccc3CC2)cn1 [CBK018383] | 73.026% |
| O=C(CSc1nnc(C2CC2)o1)Nc1ccc(CN2CCOCC2)cc1 [CBK305015] | 132.104% |
